# Source: US20240352013A1, “BICYCLIC FUSED PYRAZOLE DERIVATIVES FOR THE TREATMENT OF RESPIRATORY INFECTIONS INCLUDING RSV” (GEORGIA STATE UNIVERSITY RESEARCH FOUNDATION, INC., priority 2021, published 2024)
# At least one structure is not confirmed: it was looked up by name or label, or the drawing left a doubt.
# Assays:
# recRSV-A2line19F-[mKate] = experiment: In vivo efficacy in RSV-infected mice (lung viral titer); details: prophylactic or therapeutic, b.i.d., up to 200 mg/kg
# [1] = biological target: RSV P-L polymerase complex, L1502Q (Human respiratory syncytial virus A, UniProt P28887, L1502Q); experiment: In vitro RdRP primer extension assay, L L1502Q; type: biochemical; details: 100 μM, primer/template, of untreated
# [2] = biological target: RSV P-L polymerase complex, Y1631H (Human respiratory syncytial virus A, UniProt P28887, Y1631H); experiment: In vitro RdRP primer extension assay, L Y1631H; type: biochemical; details: 100 μM, primer/template, of untreated
# [3] = biological target: RSV P-L polymerase complex, H1632Q (Human respiratory syncytial virus A, UniProt P28887, H1632Q); experiment: In vitro RdRP primer extension assay, L H1632Q; type: biochemical; details: 100 μM, primer/template, of untreated
# [4] = system: recRSV-mKate harboring Y1631H; type: cell-based; details: recRSV with LY1631H relative to L WT; AZ-27 highest concentration tested 6 μM
# recRSV-fireSMASh = experiment: Competition with exogenous nucleosides in RSV-infected cells; details: 20 μM compound, increasing exogenous nucleosides
smiles,measurement,setting,value
COc1ccc(Cn2c3cc(=O)n(Cc4cccc(Cl)n4)c(C)c3c(=O)n2-c2ccccn2)cc1 [AVG-233],lung virus load,recRSV-A2line19F-[mKate],neither prophylactic nor therapeutic administration of the compound at a twice-daily dose (b.i.d.) of up to 200 mg/kg significantly reduced lung virus load
same,polymerase activity restored,[1],98.7%
same,polymerase activity restored,[2],69%
same,polymerase activity restored,[3],60%
same,increase in EC90,[4],barely conferred resistance
same,inhibition of RSV replication in presence of exogenous nucleosides,recRSV-fireSMASh,unaffected by exogenous nucleosides
